# According to patent US20240116873A1, “QUINOLINE MERCAPTOACETATE SULFONAMIDE DERIVATIVE, INTERMEDIATE, PHARMACEUTICAL DERIVATIVE OR FORMULATION, AND PREPARATION METHOD AND USE THEREFOR” (JIANGSU CHIATAI QINGJIANG PHARMACEUTICAL CO., LTD., priority 2022, published 2024):
# Protein sequences, listed by entry. Tags and fused reporters are not part of them. Lines headed by an entry give the natural chain unless they say otherwise; changes in a name come on top.
# UniProt Q96S37: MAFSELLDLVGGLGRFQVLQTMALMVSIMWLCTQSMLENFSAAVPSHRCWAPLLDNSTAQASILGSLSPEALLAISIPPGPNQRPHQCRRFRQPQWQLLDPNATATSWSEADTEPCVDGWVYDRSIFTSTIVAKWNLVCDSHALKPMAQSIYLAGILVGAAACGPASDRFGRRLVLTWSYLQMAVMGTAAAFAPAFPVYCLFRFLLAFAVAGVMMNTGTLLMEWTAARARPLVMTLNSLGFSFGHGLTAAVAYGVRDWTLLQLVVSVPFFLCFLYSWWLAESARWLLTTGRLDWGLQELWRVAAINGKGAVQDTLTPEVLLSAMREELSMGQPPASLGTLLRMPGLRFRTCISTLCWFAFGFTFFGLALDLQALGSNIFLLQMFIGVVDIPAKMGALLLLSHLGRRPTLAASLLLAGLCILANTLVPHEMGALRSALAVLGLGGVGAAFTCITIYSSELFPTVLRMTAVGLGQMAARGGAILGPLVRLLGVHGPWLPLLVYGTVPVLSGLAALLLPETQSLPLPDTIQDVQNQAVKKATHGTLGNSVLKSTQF
# At least one structure is not confirmed: it was looked up by name or label, or the drawing left a doubt.
# Biological target: hURAT1 (Homo sapiens (Human), UniProt Q96S37)
# Experiment: In vitro inhibition of 14C-uric acid absorption in HEK-293T cells stably expressing hURAT1
# Type: cell-based
# Details: curve-fit parameter, superscript 1 = plate1, 2 = plate2
# Protocol: It was to test the in vitro inhibitory activity (IC50) of the compound on hURAT1.
# The culture medium included: a DMEM culture medium+10% of fetal calf serum+500 μg/ml G418+1% of P/S. • (2) When the cells grew to 80% full, the culture medium was removed, PBS was added to clean the cells once, and then pancreatin-EDTA was added for digestion. The culture medium was added when the cells were subjected to wall removal, and subjected to blowing and beating to make the cells fall off. The cells were centrifuged and collected. The culture medium was added, and subjected to blowing and beating to form cell suspension. • (3) The cell density was adjusted to be 7×10^5/ml, then the cells were inoculated into a 96-well cell culture plate with white wall and transparent bottom according to the amount of 100 μL/well, and cultured for 12-24 h.
# 3.3 Preparation of compounds • (1) The compound was prepared into a mother solution with a concentration of 20 mM by DMSO, the mother solution was diluted to reach a concentration of 1 mM by DMSO, and then the solution was added into 96 wells. • (2) Quality control compounds were additionally arranged on the 96-well plate, so as to obtain a 100 x compound plate. • (3) The solutions in corresponding wells of another 96-well plate were diluted 50 times by the Cl-free HBSS buffer solution, so as to obtain a 2 x compound plate (plate 2). • (4) A buffer solution containing 0.1 μCi/ml 14C-uric acid at a density of 30 μL/well and a 2 x diluted compound at a density of 30 μL/well into a new 96-well plate, so as to obtain a 1 x compound plate (plate 1) for later use.
# 3.4 Absorption of ^14C-uric acid in cells stably expressing hURAT1 • (1) An absorption test may be performed after cells in the 96-well plate were cultured and adhered to the wall. • (2) The cells were washed once by the preheated buffer solution at a density of 200 μL/well. • (3) The cells in each well were completely absorbed, and then the corresponding compounds and 0.1 μCi/ml 14C-uric acid solution were immediately added at a density of 50 μL/well. • (4) The plate added with the compounds was incubated in an incubator at 37° C. for 5 min. • (5) 150 μL of ice-cold buffer solution was immediately added into each well to stop absorption. Each well was washed for three times with the buffer solution.
SMILES,BOTTOM,HILLSLOPE,TOP
Cc1ccc2nccc(SC(C)(C)C(=O)NS(C)(=O)=O)c2c1 [A],−0.2,2.2,74.6
CC(C)(Sc1ccnc2ccc(F)cc12)C(=O)NS(C)(=O)=O [B],2.79,0.69,111.10
CCS(=O)(=O)NC(=O)C(C)(C)Sc1ccnc2ccc(Br)cc12 [C],7.49,0.89,95.14
CC(C)(Sc1ccnc2ccc(C(F)(F)F)cc12)C(=O)NS(C)(=O)=O [D],−18.87,0.48,106.60
CC(C)(Sc1ccnc2ccc(Br)cc12)C(=O)NS(=O)(=O)c1cccs1 [E],−0.97,1.26,90.15
